The values below come from patent publication US20230414709A1.

No constants are given. Whether binding was seen depends on the method and setting. Some results given as binding are weak or reduced against the parent protein; the word gives no strength.

The target in assay [1] is T1, wild-type human NGAL (Neutrophil Gelatinase-Associated Lipocalin) (human), P80188.
T1 chain: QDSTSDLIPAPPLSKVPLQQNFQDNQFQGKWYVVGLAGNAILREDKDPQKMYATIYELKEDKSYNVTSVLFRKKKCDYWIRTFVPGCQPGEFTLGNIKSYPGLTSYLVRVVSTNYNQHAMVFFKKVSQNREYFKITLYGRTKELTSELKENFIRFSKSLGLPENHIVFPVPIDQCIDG
The experiment in a line: Western blot, self-association (homodimer). As to conditions: remark: other sources report otherwise. (In general: A western blot detects proteins with antibodies after separation by electrophoresis.)

Assay [2] has as its target T1, wild-type human NGAL (Neutrophil …). Kind of assay: Western blot of purified NGAL, homodimer band against monomer band. As to conditions: remark: other sources report otherwise.

B1: wild-type human NGAL (Neutrophil Gelatinase-Associated Lipocalin), P80188 21-198 (ligand)
chain: QDSTSDLIPAPPLSKVPLQQNFQDNQFQGKWYVVGLAGNAILREDKDPQKMYATIYELKEDKSYNVTSVLFRKKKCDYWIRTFVPGCQPGEFTLGNIKSYPGLTSYLVRVVSTNYNQHAMVFFKKVSQNREYFKITLYGRTKELTSELKENFIRFSKSLGLPENHIVFPVPIDQCIDG
In the case of B1, the binding entry in assay [1] and in assay [2] was “binds” in each case.
